Test results as given in article PMC12815461 (2026).
Numbering of substitutions follows the chain as printed. Results are given in words; binding and its absence hold for the method and conditions named. In cells and extracts the contact can be indirect. Here binding means that the protein was enriched with, or labelled near, the bait; the list need not be complete. Where a sequence is shown, tags or fusion partners need not be part of it.

Amino acid sequences for entries named in this document (tags omitted).
UniProt Q12888: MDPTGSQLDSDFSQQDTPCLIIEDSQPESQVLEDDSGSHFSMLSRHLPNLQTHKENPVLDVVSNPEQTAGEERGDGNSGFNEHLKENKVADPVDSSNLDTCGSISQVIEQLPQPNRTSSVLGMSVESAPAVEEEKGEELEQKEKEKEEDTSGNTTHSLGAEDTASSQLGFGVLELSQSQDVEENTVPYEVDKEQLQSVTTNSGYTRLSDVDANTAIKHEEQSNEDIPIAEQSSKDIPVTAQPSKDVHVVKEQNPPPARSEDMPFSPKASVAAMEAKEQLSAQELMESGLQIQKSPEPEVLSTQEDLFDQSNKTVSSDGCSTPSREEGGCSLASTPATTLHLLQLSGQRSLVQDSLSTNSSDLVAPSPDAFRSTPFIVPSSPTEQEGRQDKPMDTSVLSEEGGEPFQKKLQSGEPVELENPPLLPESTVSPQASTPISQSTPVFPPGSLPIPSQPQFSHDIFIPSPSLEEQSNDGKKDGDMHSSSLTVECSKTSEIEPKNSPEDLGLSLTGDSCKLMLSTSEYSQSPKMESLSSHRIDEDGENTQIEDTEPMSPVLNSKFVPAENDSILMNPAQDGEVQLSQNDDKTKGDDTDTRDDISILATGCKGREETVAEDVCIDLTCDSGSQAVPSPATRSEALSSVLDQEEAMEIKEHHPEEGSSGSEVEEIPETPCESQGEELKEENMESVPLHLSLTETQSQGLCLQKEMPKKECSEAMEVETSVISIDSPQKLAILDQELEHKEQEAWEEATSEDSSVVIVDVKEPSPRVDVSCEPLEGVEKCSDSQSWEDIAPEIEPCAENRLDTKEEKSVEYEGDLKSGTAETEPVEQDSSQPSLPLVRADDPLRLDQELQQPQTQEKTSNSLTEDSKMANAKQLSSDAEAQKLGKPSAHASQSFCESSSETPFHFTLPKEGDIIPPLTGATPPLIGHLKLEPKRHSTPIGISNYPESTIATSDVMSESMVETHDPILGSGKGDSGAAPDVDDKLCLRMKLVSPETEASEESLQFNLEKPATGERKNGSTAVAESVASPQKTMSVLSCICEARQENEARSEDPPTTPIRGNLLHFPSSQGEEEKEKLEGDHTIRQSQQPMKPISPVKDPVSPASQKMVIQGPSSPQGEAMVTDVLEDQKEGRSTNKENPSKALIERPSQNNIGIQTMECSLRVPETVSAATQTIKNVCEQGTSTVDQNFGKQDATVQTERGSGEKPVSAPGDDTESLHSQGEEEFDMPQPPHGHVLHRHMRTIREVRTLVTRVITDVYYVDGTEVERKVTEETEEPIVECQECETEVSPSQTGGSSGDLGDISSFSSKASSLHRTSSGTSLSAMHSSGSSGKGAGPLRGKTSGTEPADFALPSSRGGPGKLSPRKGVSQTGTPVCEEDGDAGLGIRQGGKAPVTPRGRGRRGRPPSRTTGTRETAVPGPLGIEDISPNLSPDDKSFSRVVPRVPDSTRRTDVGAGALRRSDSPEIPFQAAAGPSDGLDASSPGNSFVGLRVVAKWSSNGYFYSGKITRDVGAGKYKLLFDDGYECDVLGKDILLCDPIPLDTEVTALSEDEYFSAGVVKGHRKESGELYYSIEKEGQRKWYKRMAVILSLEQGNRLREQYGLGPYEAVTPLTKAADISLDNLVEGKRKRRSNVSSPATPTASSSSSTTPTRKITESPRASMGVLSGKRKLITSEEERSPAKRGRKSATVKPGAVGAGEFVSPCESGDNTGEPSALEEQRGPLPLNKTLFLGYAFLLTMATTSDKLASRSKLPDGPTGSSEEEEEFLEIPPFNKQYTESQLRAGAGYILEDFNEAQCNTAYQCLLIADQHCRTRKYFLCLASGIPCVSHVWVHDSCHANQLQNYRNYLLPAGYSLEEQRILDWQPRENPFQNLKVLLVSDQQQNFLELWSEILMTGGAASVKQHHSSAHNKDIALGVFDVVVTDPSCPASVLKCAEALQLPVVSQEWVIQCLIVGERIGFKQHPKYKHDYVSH

Tests used:
[1] = target: T1, FLAG-tagged wild-type GMCL1 (germ cell-less protein-like 1) (human) (UniProt Q96IK5); experiment: affinity purification with mass spectrometry; FLAG-GMCL1 WT, EK or BBO transfected into HEK293T for 24 hr; FLAG-M2 beads, elution with 3xFLAG peptide, MS/MS; SAINT scores >0.70 and FDR <5%, WT or EK against BBO
T1 sequence: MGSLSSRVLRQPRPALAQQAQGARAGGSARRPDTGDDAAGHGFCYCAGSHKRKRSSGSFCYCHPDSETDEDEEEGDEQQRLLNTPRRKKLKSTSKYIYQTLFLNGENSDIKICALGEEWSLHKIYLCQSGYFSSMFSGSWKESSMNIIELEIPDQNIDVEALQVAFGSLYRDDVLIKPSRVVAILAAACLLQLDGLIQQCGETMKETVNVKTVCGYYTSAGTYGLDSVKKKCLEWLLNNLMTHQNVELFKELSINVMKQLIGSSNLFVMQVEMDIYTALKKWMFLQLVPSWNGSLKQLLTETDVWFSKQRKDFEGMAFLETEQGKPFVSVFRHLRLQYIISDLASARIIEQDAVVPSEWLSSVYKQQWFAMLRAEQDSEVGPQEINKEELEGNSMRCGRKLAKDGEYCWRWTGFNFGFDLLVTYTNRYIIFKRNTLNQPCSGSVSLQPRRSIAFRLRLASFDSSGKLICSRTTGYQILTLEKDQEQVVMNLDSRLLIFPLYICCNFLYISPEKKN

[2] = target: T2, FLAG-tagged GMCL1 E142K (human) (UniProt Q96IK5); experiment: as above
T2 sequence: T1 sequence with E142K

53BP1 (p53-binding protein 1), endogenous in HEK293T (from UniProt Q12888 1-1972)
binding [1]: binds | binding [2]: binds
